The numbers were not newly measured in publication PMC3100183 (Biochemistry, 2011), which cites them from elsewhere.

The series concerns EET binding site/receptor on U937 cell membranes. The conditions noted are these: read-out: Ki, inhibition of 20-125I-14,15-EE5ZE binding; cited from earlier work.

Take `Clc1ccc(COC(Cn2ccnc2)c2ccc(Cl)cc2Cl)c(Cl)c1` (stereo not shown) [miconazole]: the Ki was 350 nM.
